According to the supplement of paper PMC8256030:
“And” between values parts separate entries of the source, which are not always exact repeats. Equal entries are not always repeated. Structures can show the parent of a compound that is named as a salt. The list shows a part of the results. Repeats in this data set agree poorly, so a single value says little.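 HEK293T cells were given each compound shortly before transfection with a reporter in which red mCherry is followed by the SARS-CoV-2 frameshift element and then GFP in the −1 frame, so GFP appears only after frameshifting.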

How the values were obtained:
[1] = test system: SARS-CoV-2 -1 PRF reporter mCherry-FSE-GFP(-1); assay: mCherry (red) intensity as percent of control; higher = higher upstream reporter expression; conditions: 10 µM; 24 h; HEK293T
[2] = test system: SARS-CoV-2 -1 PRF reporter mCherry-FSE-GFP(-1); assay: percent effect, decrease of GFP/mCherry ratio (-1 PRF reporter) relative to controls; higher = stronger frameshift inhibition; conditions: 10 µM; 24 h; HEK293T

SMILES | mCherry [1] | percent effect [2]
Cc1cnc(C(=O)NCCc2ccc(S(=O)(=O)NC(=O)NC3CCCCC3)cc2)cn1 [Glipizide] | 111% | -1.73%
CCCCC(C)(O)C/C=C/[C@H]1[C@H](O)CC(=O)[C@@H]1CCCCCCC(=O)OC (some centres not stated) [Cytotec] | 116% | -3.7%
CCC(C)CCCCC(=O)NC(CCN)C(=O)NC(C(=O)NC(CCN)C(=O)NC1CCNC(=O)C(C(C)O)NC(=O)C(CCN)NC(=O)C(CCN)NC(=O)C(CC(C)C)NC(=O)C(Cc2ccccc2)NC(=O)C(CCN)NC1=O)C(C)O (configuration not stated) | 88.9% | -1.75%
CCOC(=O)C1=C[C@]2(CC)CCCN3CCc4c(n1c1ccccc41)[C@@H]32 | 105% | -0.191%
CCN(CC)CC#CCOC(=O)C(O)(c1ccccc1)C1CCCCC1 (configuration not stated) [oxybutynin] | 114% | -6.74%
O=C(Nc1ccc([N+](=O)[O-])cc1Cl)c1cc(Cl)ccc1O [niclosamide] | 96.9% | -2.92%
C#C[C@]1(O)CC[C@H]2[C@@H]3CCc4cc(OC)ccc4[C@H]3CC[C@@]21C [mestranol] | 102% | -11.4%
O=NN(CCCl)C(=O)NC1CCCCC1 [lomustine] | 82.2% and 75% | -0.926% and -7.35%
C[C@H](CCC(=O)O)[C@H]1CC[C@H]2[C@@H]3CC[C@@H]4C[C@H](O)CC[C@]4(C)[C@H]3C[C@H](O)[C@]12C [Deoxycholic Acid] | 77.1% | -3.49%
Cc1[nH]cnc1-c1ccc(Cl)cc1 [lofemizole] | 96.5% | -7.45%
CCCCN1CCCC[C@H]1C(=O)Nc1c(C)cccc1C [levobupivacaine] | 96.7% | -1.14%
CC(=O)N[C@H]1[C@H]([C@H](O)[C@H](O)CO)OC(C(=O)O)=C[C@@H]1NC(=N)N [zanamivir] | 84.1% | -2.35%
CCCCCCCCCc1ccc(OCCOCCOCCOCCOCCOCCOCCOCCOCCO)cc1 | 85% | -6.36%
C[C@H](N)C(=O)N[C@@H](C)P(=O)(O)O [alafosfalin] | 98.4% | -2.35%
CCC[C@@H]1C[C@@H](C(=O)N[C@@H]([C@H]2O[C@H](SC)[C@H](O)[C@@H](O)[C@H]2O)[C@@H](C)O)N(C)C1 [Lincomycin] | 101% | 0.559%
CO[C@@]1(NC(=O)CSCC#N)C(=O)N2C(C(=O)O)=C(CSc3nnnn3C)CS[C@@H]21 | 141% | -3.87%
CCN(CC)C(=O)c1ccc(O)c(OC)c1 [etamivan] | 138% | -0.143%
Cc1nc(Nc2ncc(C(=O)Nc3c(C)cccc3Cl)s2)cc(N2CCN(CCO)CC2)n1 [dasatinib] | 74.4% | 3.5%
CC(C)(C)NC(=O)[C@@H]1CN(Cc2cccnc2)CCN1C[C@@H](O)C[C@@H](Cc1ccccc1)C(=O)N[C@H]1c2ccccc2C[C@H]1O [indinavir] | 97.5% | -2.56%
CC(CCc1ccc(O)cc1)NCC(O)c1ccc(O)cc1 (configuration not stated) | 112% | 2.18%
C[C@H](N[C@@H](CCc1ccccc1)C(=O)O)C(=O)N1CCC[C@H]1C(=O)O [enalaprilat] | 119% and 101% | 0.813% and 2.64%
O=C(O)P(=O)(O)O [foscarnet sodium] | 106% | 0.302%
CCN(CC)CCNC(=O)c1ccccc1O [saletamide] | 126% | -2.94%
CCCC(CCC)C(=O)O [valproic acid] | 102% and 104% | 0.623% and -8.71%

An excerpt of these results, as tab-separated lines:
SMILES	mCherry [1]	percent effect [2]
CC(C)(C)NC(=O)[C@@H]1CN(Cc2cccnc2)CCN1C[C@@H](O)C[C@@H](Cc1ccccc1)C(=O)N[C@H]1c2ccccc2C[C@H]1O [indinavir]	97.5%	-2.56%
CC(CCc1ccc(O)cc1)NCC(O)c1ccc(O)cc1 (configuration not stated)	112%	2.18%
C[C@H](N[C@@H](CCc1ccccc1)C(=O)O)C(=O)N1CCC[C@H]1C(=O)O [enalaprilat]	119% and 101%	0.813% and 2.64%
O=C(O)P(=O)(O)O [foscarnet sodium]	106%	0.302%

(further entries)

SMILES | mCherry [1] | percent effect [2]
CCOc1ccc(/N=N/c2ccc(N)cc2N)cc1 [etoxazene] | 88.5% | 4.56%
CN(C)[C@@H]1C(=O)C(C(N)=O)=C(O)[C@@]2(O)C(=O)C3=C(O)c4c(O)ccc(Cl)c4[C@@H](O)[C@H]3C[C@@H]12 [Demeclocycline, Declomycin] | 63.5% | 4.08%
COc1cc(O)c(C(=O)c2ccccc2)cc1S(=O)(=O)O | 76.6% | -3.23%
CC[C@@H](C(=O)[C@@H](C)[C@@H](O)[C@H](C)CCc1ccc(C)c(O)c1C(=O)O)[C@H]1O[C@](CC)([C@H]2CC[C@](O)(CC)[C@H](C)O2)C[C@@H]1C [lasalocid] | 56.4% | -5.45%
CCOC(=O)O[C@]1(C(=O)COC(=O)CC)CC[C@H]2[C@@H]3CCC4=CC(=O)C=C[C@]4(C)[C@H]3[C@@H](O)C[C@@]21C | 95.2% | -4.94%
CC(O)(P(=O)(O)O)P(=O)(O)O [Etidronate] | 75.5% | -4.17%
Nc1nc2c(ncn2COCCO)c(=O)[nH]1 | 100% | 1.42%
CC1=CC(=O)c2ccccc2C1=O | 88.4% | -0.442%
NC(=O)N[C@@H](CCC(=O)O)C(=O)O | 85.5% | -5.5%
COc1c(C)c2c(c(O)c1C/C=C(\C)CCC(=O)OCCN1CCOCC1)C(=O)OC2 [Mycophenolate mofetil] | 146% | -5.18%
CC/C(=C(\c1ccc(O)cc1)c1ccc(OCCN(C)C)cc1)c1ccccc1 [afimoxifene] | 48% | -7.44%
N=C(N)NCc1cccc(I)c1 [Iobenguane] | 89.6% | -4.5%
CN1CCc2cccc3c2[C@H]1Cc1ccc(O)c(O)c1-3 | 123% | 0.121%
CO[C@@H]1[C@@H](O[C@@H]2O[C@H](C)[C@@H](O[C@H]3C[C@@](C)(O)[C@@H](OC(=O)CC(C)C)[C@H](C)O3)[C@H](N(C)C)[C@H]2O)[C@@H](CC=O)C[C@@H](C)[C@@H](O)/C=C/C=C/C[C@@H](C)OC(=O)C[C@H]1OC(C)=O [josamycin] | 92.6% | -0.682%
Cc1c(CC(=O)O)sc2ccc(Cl)cc12 [tianafac] | 84.3% | -7%
CC(C)NCC(O)COc1ccc(COCCOC(C)C)cc1 (configuration not stated) | 114% | 0.466%
CC(C)=CCC[C@](C)(O)[C@@H]1CC=C(C)CC1 [levomenol] | 84.4% | -3.67%
CCOC(=O)OC(C)OC1=C(C(=O)Nc2ccccn2)N(C)S(=O)(=O)c2ccccc21 (configuration not stated) [ampiroxicam] | 56.2% | -4.6%
Cc1ccc([C@@H]2O[C@H](CO)[C@@H](O)[C@H](O)[C@H]2O)cc1Cc1ccc(-c2ccc(F)cc2)s1 [Canagliflozin] | 93.8% | -2.79%
C/C(=C(\CCOP(=O)(O)O)SC(=O)c1ccccc1)N(C=O)Cc1cnc(C)nc1N [benfotiamine] | 98.9% | -0.417%
CC(Oc1ccccc1)C(=O)N[C@@H]1C(=O)N2[C@@H]1SC(C)(C)[C@@H]2C(=O)O (some centres not stated) [pheneticillin] | 58.9% | 1.64%
CCCCNC(=O)c1ccc(Cl)cc1O [buclosamide] | 96.2% | -3.97%
C[C@@H]1[C@H](O)[C@@H](C)/C=C/C=C/C=C/C=C/C=C/C=C/C=C/[C@H](O[C@@H]2O[C@H](C)[C@@H](O)[C@H](N)[C@@H]2O)C[C@@H]2O[C@](O)(C[C@@H](O)C[C@@H](O)[C@H](O)CC[C@@H](O)C[C@@H](O)CC(=O)O[C@H]1C)C[C@H](O)[C@H]2C(=O)O [amphotericin B] | 87.9% | -4.75%
CCOc1cc(-c2nccc3cc(OC)c(OC)cc23)cc(OCC)c1OCC [octaverine] | 80% | -6.89%

SMILES | mCherry [1] | percent effect [2]
COc1cc(C(=O)NCCCCCC(=O)O)cc(OC)c1OC [capobenic acid] | 91.2% | -0.864%
CCCCCCCCCCCCN1CCCCCC1=O [laurocapram] | 97.9% | 0.428%
C=CCc1ccc(O)c(OC)c1 | 124% | -1.58%
CC1(C)S[C@@H]2[C@H](NC(=O)[C@H](NC(=O)N3CCNC3=O)c3ccccc3)C(=O)N2[C@H]1C(=O)O [azlocillin] | 97.2% | -3.63%
Cc1cc2c(s1)Nc1ccccc1N=C2N1CCN(C)CC1 | 88.6% | -3.14%
O=C(Nc1ncc([N+](=O)[O-])s1)c1cccs1 [tenonitrozole] | 61.1% | -13.2%
CN1[C@@H]2CC[C@H]1C[C@@H](OC(c1ccccc1)c1ccccc1)C2 [benzatropine] | 103% | -0.0498%
CCOC(Nc1ccc(C(=O)O)cc1)C(=O)c1ccc(-c2ccccc2)cc1 (configuration not stated) [xenazoic acid] | 79.1% | -3.77%
CC(=O)CC(c1ccc([N+](=O)[O-])cc1)c1c(O)c2ccccc2oc1=O (configuration not stated) | 99.9% | -16.7%
CNCC(O)c1ccc(O)c(O)c1 [L-(+)-Epinephrine tartrate] | 85.2% | -4.12%
CCOC(=O)C1=C(C)NC(C)=C(C(=O)OCC)C1c1cccc2nonc12 [darodipine] | 96.1% | 1.91%
CC(=O)CC/C=C(\C)CC/C=C(\C)CC/C=C(\C)CCC=C(C)C [teprenone] | 108% | -0.112%
CCOC(=O)OC(C)OC(=O)[C@@H]1N2C(=O)[C@@H](NC(=O)[C@H](N)c3ccccc3)[C@H]2SC1(C)C (some centres not stated) | 127% | 3.03%
C[N+]1(C)CCC(OC(=O)C(O)(c2ccccc2)C2CCCC2)C1 (configuration not stated) | 93.7% | -0.0239%
CC(N)C(=O)OC(C)(C)Cc1ccc(Cl)cc1 (configuration not stated) [alaproclate] | 123% | 0.131%
O=C(O)C1CC(O)CN1 (configuration not stated) [Hydroxyproline] | 89.3% | -5.3%
COc1cc(C(C)=O)ccc1OCCCN1CCC(c2noc3cc(F)ccc23)CC1 [iloperidone] | 83.8% | -2.03%
C[C@@](Cc1ccc(O)c(O)c1)(NN)C(=O)O [carbidopa] | 109% and 85.2% | 3.96% and 1.57%
NCc1ccccc1CC(=O)N[C@@H]1C(=O)N2C(C(=O)O)=C(CSc3nnnn3CC(=O)O)CS[C@H]12 | 108% | -3.76%
C=CCCCCCCCCC(=O)[O-].C=CCCCCCCCCC(=O)[O-].[Zn+2] | 121% | -1.66%
CCc1nn(CCCN2CCN(c3cccc(Cl)c3)CC2)c(=O)n1CCOc1ccccc1 [nefazodone] | 95.7% | -5.89%
CC(=O)Nc1ccc(S(=O)(=O)Nc2ccc([N+](=O)[O-])cc2)cc1 [sulfanitran] | 101% | -3.9%
COc1ccc(-n2nc(CCC(=O)N(C)O)cc2-c2ccc(Cl)cc2)cc1 [tepoxalin] | 73.2% | -1.4%
